B1: SERAC1 (protein, UniProt Q96JX3 1-654, looked up)
Protein SERAC1: MSLAAYCVICCRRIGTSTSPPKSGTHWRDIRNIIKFTGSLILGGSLFLTYEVLALKKAVTLDTQVVEREKMKSYIYVHTVSLDKGENHGIAWQARKELHKAVRKVLATSAKILRNPFADPFSTVDIEDHECAVWLLLRKSKSDDKTTRLEAVREMSETHHWHDYQYRIIAQACDPKTLIGLARSEESDLRFFLLPPPLPSLKEDSSTEEELRQLLASLPQTELDECIQYFTSLALSESSQSLAAQKGGLWCFGGNGLPYAESFGEVPSATVEMFCLEAIVKHSEISTHCDKIEANGGLQLLQRLYRLHKDCPKVQRNIMRVIGNMALNEHLHSSIVRSGWVSIMAEAMKSPHIMESSHAARILANLDRETVQEKYQDGVYVLHPQYRTSQPIKADVLFIHGLMGAAFKTWRQQDSEQAVIEKPMEDEDRYTTCWPKTWLAKDCPALRIISVEYDTSLSDWRARCPMERKSIAFRSNELLRKLRAAGVGDRPVVWISHSMGGLLVKKMLLEASTKPEMSTVINNTRGIIFYSVPHHGSRLAEYSVNIRYLLFPSLEVKELSKDSPALKTLQDDFLEFAKDKNFQVLNFVETLPTYIGSMIKLHVVPVESADLGIGDLIPVDVNHLNICKPKKKDAFLYQRTLQFIREALAKDLEN
B2: PIGU (protein, UniProt Q9H490 2-435, looked up)
GPI-anchor transamidase …: AAPLVLVLVVAVTVRAALFRSSLAEFISERVEVVSPLSSWKRVVEGLSLLDLGVSPYSGAVFHETPLIIYLFHFLIDYAELVFMITDALTAIALYFAIQDFNKVVFKKQKLLLELDQYAPDVAELIRTPMEMRYIPLKVALFYLLNPYTILSCVAKSTCAINNTLIAFFILTTIKGSAFLSAIFLALATYQSLYPLTLFVPGLLYLLQRQYIPVKMKSKAFWIFSWEYAMMYVGSLVVIICLSFFLLSSWDFIPAVYGFILSVPDLTPNIGLFWYFFAEMFEHFSLFFVCVFQINVFFYTIPLAIKLKEHPIFFMFIQIAVIAIFKSYPTVGDVALYMAFFPVWNHLYRFLRNIFVLTCIIIVCSLLFPVLWHLWIYAGSANSNFFYAITLTFNVGQILLISDYFYAFLRREYYLTHGLYLTAKDGTEAMLVLK
B3: QPCTL (protein, UniProt Q9NXS2 1-382, looked up)
Glutaminyl-peptide …: MRSGGRGRPRLRLGERGLMEPLLPPKRRLLPRVRLLPLLLALAVGSAFYTIWSGWHRRTEELPLGRELRVPLIGSLPEARLRRVVGQLDPQRLWSTYLRPLLVVRTPGSPGNLQVRKFLEATLRSLTAGWHVELDPFTASTPLGPVDFGNVVATLDPRAARHLTLACHYDSKLFPPGSTPFVGATDSAVPCALLLELAQALDLELSRAKKQAAPVTLQLLFLDGEEALKEWGPKDSLYGSRHLAQLMESIPHSPGPTRIQAIELFMLLDLLGAPNPTFYSHFPRTVRWFHRLRSIEKRLHRLNLLQSHPQEVMYFQPGEPFGSVEDDHIPFLRRGVPVLHLISTPFPAVWHTPADTEVNLHPPTVHNLCRILAVFLAEYLGL
B4: NCAPD3 (protein, UniProt P42695 1-1498, looked up)
Condensin-2 complex subunit D3: MVALRGLGSGLQPWCPLDLRLEWVDTVWELDFTETEPLDPSIEAEIIETGLAAFTKLYESLLPFATGEHGSMESIWTFFIENNVSHSTLVALFYHFVQIVHKKNVSVQYREYGLHAAGLYFLLLEVPGSVANQVFHPVMFDKCIQTLKKSWPQESNLNRKRKKEQPKSSQANPGRHRKRGKPPRREDIEMDEIIEEQEDENICFSARDLSQIRNAIFHLLKNFLRLLPKFSLKEKPQCVQNCIEVFVSLTNFEPVLHECHVTQARALNQAKYIPELAYYGLYLLCSPIHGEGDKVISCVFHQMLSVILMLEVGEGSHRAPLAVTSQVINCRNQAVQFISALVDELKESIFPVVRILLQHICAKVVDKSEYRTFAAQSLVQLLSKLPCGEYAMFIAWLYKYSRSSKIPHRVFTLDVVLALLELPEREVDNTLSLEHQKFLKHKFLVQEIMFDRCLDKAPTVRSKALSSFAHCLELTVTSASESILELLINSPTFSVIESHPGTLLRNSSAFSYQRQTSNRSEPSGEINIDSSGETVGSGERCVMAMLRRRIRDEKTNVRKSALQVLVSILKHCDVSGMKEDLWILQDQCRDPAVSVRKQALQSLTELLMAQPRCVQIQKAWLRGVVPVVMDCESTVQEKALEFLDQLLLQNIRHHSHFHSGDDSQVLAWALLTLLTTESQELSRYLNKAFHIWSKKEKFSPTFINNVISHTGTEHSAPAWMLLSKIAGSSPRLDYSRIIQSWEKISSQQNPNSNTLGHILCVIGHIAKHLPKSTRDKVTDAVKCKLNGFQWSLEVISSAVDALQRLCRASAETPAEEQELLTQVCGDVLSTCEHRLSNIVLKENGTGNMDEDLLVKYIFTLGDIAQLCPARVEKRIFLLIQSVLASSADADHSPSSQGSSEAPASQPPPQVRGSVMPSVIRAHAIITLGKLCLQHEDLAKKSIPALVRELEVCEDVAVRNNVIIVMCDLCIRYTIMVDKYIPNISMCLKDSDPFIRKQTLILLTNLLQEEFVKWKGSLFFRFVSTLIDSHPDIASFGEFCLAHLLLKRNPVMFFQHFIECIFHFNNYEKHEKYNKFPQSEREKRLFSLKGKSNKERRMKIYKFLLEHFTDEQRFNITSKICLSILACFADGILPLDLDASELLSDTFEVLSSKEIKLLAMRSKPDKDLLMEEDDMALANVVMQEAQKKLISQVQKRNFIENIIPIIISLKTVLEKNKIPALRELMHYLREVMQDYRDELKDFFAVDKQLASELEYDMKKYQEQLVQEQELAKHADVAGTAGGAEVAPVAQVALCLETVPVPAGQENPAMSPAVSQPCTPRASAGHVAVSSPTPETGPLQRLLPKARPMSLSTIAILNSVKKAVESKSRHRSRSLGVLPFTLNSGSPEKTCSQVSSYSLEQESNGEIEHVTKRAISTPEKSISDVTFGAGVSYIGTPRTPSSAKEKIEGRSQGNDILCLSLPDKPPPQPQQWNVRSPARNKDTPACSRRSLRKTPLKTAN
B5: C3orf58 (protein, UniProt Q8NDZ4 36-430, looked up)
Divergent protein kinase …: LASWQRNELTDRRFLQLNKCPACFGTSWCRRFLNGQVVFEAWGRLRLLDFLNVKNVYFAQYGEPREGGRRRVVLKRLGSQRELAQLDQSICKRATGRPRCDLLQAMPRTEFARLNGDVRLLTPEAVEGWSDLVHCPSQRLLDRLVRRYAETKDSGSFLLRNLKDSERMQLLLTLAFNPEPLVLQSFPSDEGWPFAKYLGACGRMVAVNYVGEELWSYFNAPWEKRVDLAWQLMEIAEQLTNNDFEFALYLLDVSFDNFAVGPRDGKVIIVDAENVLVADKRLIRQNKPENWDVWYESKFDDCDKEACLSFSKEILCARATVDHNYYAVCQNLLSRHATWRGTSGGLLHDPPSEIAKDGRLEALLDECANPKKRYGRFQAAKELREYLAQLSNNVR
B6: RAB10 (protein, UniProt P61026 1-200, looked up)
Ras-related protein Rab-10: MAKKTYDLLFKLLLIGDSGVGKTCVLFRFSDDAFNTTFISTIGIDFKIKTVELQGKKIKLQIWDTAGQERFHTITTSYYRGAMGIMLVYDITNGKSFENISKWLRNIDEHANEDVERMLLGNKCDMDDKRVVPKGKGEQIAREHGIRFFETSAKANINIEKAFLTLAEDILRKTPVKEPNSENVDISSGGGVTGWKSKCC
B7: MMAA (protein, UniProt Q8IVH4 66-418, looked up)
Methylmalonic aciduria type A …: CVQTTLKDHTEGLSDKEQRFVDKLYTGLIQGQRACLAEAITLVESTHSRKKELAQVLLQKVLLYHREQEQSNKGKPLAFRVGLSGPPGAGKSTFIEYFGKMLTERGHKLSVLAVDPSSCTSGGSLLGDKTRMTELSRDMNAYIRPSPTRGTLGGVTRTTNEAILLCEGAGYDIILIETVGVGQSEFAVADMVDMFVLLLPPAGGDELQGIKRGIIEMADLVAVTKSDGDLIVPARRIQAEYVSALKLLRKRSQVWKPKVIRISARSGEGISEMWDKMKDFQDLMLASGELTAKRRKQQKVWMWNLIQESVLEHFRTHPTVREQIPLLEQKVLIGALSPGLAADFLLKAFKSRD
B8: TMEM126B (protein, UniProt Q8IUX1 2-230, looked up)
Complex I assembly factor …: VVFGYEAGTKPRDSGVVPVGTEEAPKVFKMAASMHGQPSPSLEDAKLRRPMVIEIIEKNFDYLRKEMTQNIYQMATFGTTAGFSGIFSNFLFRRCFKVKHDALKTYASLATLPFLSTVVTDKLFVIDALYSDNISKENCVFRSSLIGIVCGVFYPSSLAFTKNGRLATKYHTVPLPPKGRVLIHWMTLCQTQMKLMAIPLVFQIMFGILNGLYHYAVFEETLEKTIHEE
B9: QTRT2 (protein, UniProt Q9H974 1-415, looked up)
Queuine …: MKLSLTKVVNGCRLGKIKNLGKTGDHTMDIPGCLLYTKTGSAPHLTHHTLHNIHGVPAMAQLTLSSLAEHHEVLTEYKEGVGKFIGMPESLLYCSLHDPVSPCPAGYVTNKSVSVWSVAGRVEMTVSKFMAIQKALQPDWFQCLSDGEVSCKEATSIKRVRKSVDRSLLFLDNCLRLQEESEVLQKSVIIGVIEGGDVMEERLRSARETAKRPVGGFLLDGFQGNPTTLEARLRLLSSVTAELPEDKPRLISGVSRPDEVLECIERGVDLFESFFPYQVTERGCALTFSFDYQPNPEETLLQQNGTQEEIKCMDQIKKIETTGCNQEITSFEINLKEKKYQEDFNPLVRGCSCYCCKNHTRAYIHHLLVTNELLAGVLLMMHNFEHYFGFFHYIREALKSDKLAQLKELIHRQAS
B10: TMEM147 (protein, UniProt Q9BVK8 1-224, looked up)
BOS complex subunit TMEM147: MTLFHFGNCFALAYFPYFITYKCSGLSEYNAFWKCVQAGVTYLFVQLCKMLFLATFFPTWEGGIYDFIGEFMKASVDVADLIGLNLVMSRNAGKGEYKIMVAALGWATAELIMSRCIPLWVGARGIEFDWKYIQMSIDSNISLVHYIVASAQVWMITRYDLYHTFRPAVLLLMFLSVYKAFVMETFVHLCSLGSWAALLARAVVTGLLALSTLALYVAVVNVHS

The data set relates to BAF complex subunits and histone proteins. Description: Mass spectrometry proteomics of purified HA-SS18 WT and HA-SS18-SSX1 complexes (Tables 5A-5E). Set-up: species or system human. To be noted: HA-SS18WT_NE_peptides: proteins co-purified with HA-SS18 WT from nuclear extract (NE), HEK-293T.
With B1, the “Total (peptides)” value was found to be 1 and the “Unique (peptides)” value amounted to 1.
On to B2, for which the “Total (peptides)” value worked out at 1 and the “Unique (peptides)” value amounted to 1.
As for B3, the “Total (peptides)” value stood at 1 and the “Unique (peptides)” value is 1.
With B4, the “Total (peptides)” value was 1 and the “Unique (peptides)” value is reported as 1.
As to B5, the “Total (peptides)” value was 1 and the “Unique (peptides)” value is listed as 1.
For the molecule B6, the “Total (peptides)” value was determined as 1 and the “Unique (peptides)” value was 1.
Regarding B7, the “Total (peptides)” value came out at 1 and the “Unique (peptides)” value is 1.
As for B8, the “Total (peptides)” value was determined as 1 and the “Unique (peptides)” value is recorded as 1.
As to B9, the “Total (peptides)” value worked out at 1 and the “Unique (peptides)” value came to 1.
With B10, the “Total (peptides)” value is 1 and the “Unique (peptides)” value is 1.

The values are drawn from patent US20250283871A1, “COMPOSITIONS AND METHODS FOR MODULATING THE INTERACTION BETWEEN SS18-SSX FUSION ONCOPROTEIN AND NUCLEOSOMES” (Dana-Farber Cancer Institute, Inc., priority 2020, published 2025).
